From US20120094963A1, “TARGETING PRODRUGS AND COMPOSITIONS FOR THE TREATMENT OF GASTROINTESTINAL DISEASES” (of Queen Elizabeth near Dublin, priority 2008, published 2012)

Assay: Extraction of PC1 and celecoxib from BHI media with two volumes of acetonitrile

## Cc1ccc(-c2cc(C(F)(F)F)nn2-c2ccc(S(=O)(=O)NC(=O)CCc3ccccc3/N=N/c3ccc(O)c(C(=O)O)c3)cc2)cc1 [PC1, 2-Hydroxy-5-(2-3{-oxo-3[4-(5-p-tolyl-3-trifluoromethyl-pyrazol-1-yl)-benzenesulfonylamino]-propyl}-phenylazo)-benzoic acid]
PC1 1.1 μM in BHI media, Exp1
  % Concentration recovered: 131.0%
  Average concentration recovered: 1.4 µM
PC1 1.1 μM in BHI media, Exp2
  % Concentration recovered: 101.4%
  Average concentration recovered: 1.1 µM
PC1 5.5 μM in BHI media, Exp1
  % Concentration recovered: 109.0%
  Average concentration recovered: 6.0 µM
PC1 5.5 μM in BHI media, Exp2
  % Concentration recovered: 105.8%
  Average concentration recovered: 5.9 µM
PC1 16.6 μM in BHI media, Exp1
  % Concentration recovered: 102.8%
  Average concentration recovered: 17.1 µM
PC1 16.6 μM in BHI media, Exp2
  % Concentration recovered: 110.8%
  Average concentration recovered: 18.4 µM
